Measured values as given in US6491729B1.

Experiments:
[1] = color fastness to abrasion, Example 8; settings: dyed fabric of nylon
[2] = tensile strength (load weight, displacement, stress, specific stress, strain at the maximum load point); settings: dyed fabric of wool
[3] = as above; settings: dyed fabric of polyester/cotton
[4] = as above; settings: undyed fabric of gray cotton goods
[5] = bursting strength and softness of fabric; settings: dyed fabric of polyester/rayon
[6] = yellowness index, whiteness index and Lab values of undyed fabric, Example 9; settings: gray nylon goods
[7] = degree of shrinkage of fabric after dry-cleaning; settings: dyed fabric of nylon
[8] = tensile strength (load weight, displacement, stress, specific stress, strain at the maximum load point); settings: dyed fabric of nylon
[9] = bursting strength and softness of fabric; settings: undyed fabric of gray cotton goods
[10] = bursting strength and softness of fabric; settings: dyed fabric of cotton
[11] = bursting strength and softness of fabric; settings: dyed fabric of wool; for bursting strength percentage of variation / softness percentage of variation: versus before dry-cleaned

ClC(Cl)=C(Cl)Cl [perchloroethylene]
the grade of the color fastness to abrasion, after the test ([1]; dry-cleaned five times): fourth to fifth grade | the grade of the color fastness to abrasion, before the test ([1]; dry-cleaned five times): fourth to fifth grade | the grade of the color fastness to abrasion, after the test ([1]; dry-cleaned one time): fourth to fifth grade | the grade of the color fastness to abrasion, before the test ([1]; dry-cleaned one time): fourth to fifth grade | the grade of the color fastness to abrasion, after the test ([1]; dry-cleaned two times): fourth to fifth grade | the grade of the color fastness to abrasion, before the test ([1]; dry-cleaned two times): fourth to fifth grade | displacement ([2]; dry-cleaned five times): 75.31 mm | load weight ([2]; dry-cleaned five times): 13.92 kg | specific stress ([2]; dry-cleaned five times): 13.92 kg/L | strain ([2]; dry-cleaned five times): 37.66% | stress ([2]; dry-cleaned five times): 0.7 kg/mm^2 | displacement ([2]; dry-cleaned one time): 81.25 mm | load weight ([2]; dry-cleaned one time): 16.65 kg | specific stress ([2]; dry-cleaned one time): 16.65 kg/L | strain ([2]; dry-cleaned one time): 40.62% | stress ([2]; dry-cleaned one time): 0.83 kg/mm^2 | displacement ([2]; dry-cleaned two times): 69.71 mm | load weight ([2]; dry-cleaned two times): 15.38 kg | specific stress ([2]; dry-cleaned two times): 15.38 kg/L | strain ([2]; dry-cleaned two times): 34.85% | stress ([2]; dry-cleaned two times): 0.77 kg/mm^2 | displacement ([3]; dry-cleaned five times): 27.93 mm | load weight ([3]; dry-cleaned five times): 16.8 kg | specific stress ([3]; dry-cleaned five times): 16.8 kg/L | strain ([3]; dry-cleaned five times): 13.96% | stress ([3]; dry-cleaned five times): 2.39 kg/mm^2 | displacement ([3]; dry-cleaned one time): 34.94 mm | load weight ([3]; dry-cleaned one time): 22.83 kg | specific stress ([3]; dry-cleaned one time): 22.83 kg/L | strain ([3]; dry-cleaned one time): 17.47% | stress ([3]; dry-cleaned one time): 3.25 kg/mm^2 | displacement ([3]; dry-cleaned two times): 32.96 mm | load weight ([3]; dry-cleaned two times): 21.42 kg | specific stress ([3]; dry-cleaned two times): 21.24 kg/L | strain ([3]; dry-cleaned two times): 16.48% | stress ([3]; dry-cleaned two times): 3.05 kg/mm^2 | displacement ([4]; dry-cleaned five times): 15.89 mm | load weight ([4]; dry-cleaned five times): 23.13 kg | specific stress ([4]; dry-cleaned five times): 12.13 kg/L | strain ([4]; dry-cleaned five times): 7.94% | stress ([4]; dry-cleaned five times): 4.63 kg/mm^2 | displacement ([4]; dry-cleaned one time): 48.52 mm | load weight ([4]; dry-cleaned one time): 31.94 kg | specific stress ([4]; dry-cleaned one time): 31.94 kg/L | strain ([4]; dry-cleaned one time): 9.26% | stress ([4]; dry-cleaned one time): 6.39 kg/mm^2 | displacement ([4]; dry-cleaned two times): 16.54 mm | load weight ([4]; dry-cleaned two times): 21.71 kg | specific stress ([4]; dry-cleaned two times): 21.71 kg/L | strain ([4]; dry-cleaned two times): 8.27% | stress ([4]; dry-cleaned two times): 4.34 kg/mm^2 | bursting strength ([5]; dry-cleaned five times): 26 kg · f/cm^2 | bursting strength percentage of variation ([5]; dry-cleaned five times): 0% | softness ([5]; dry-cleaned five times): 2.3 cm | softness percentage of variation ([5]; dry-cleaned five times): −12.55% | bursting strength ([5]; dry-cleaned one time): 25.5 kg · f/cm^2 | bursting strength percentage of variation ([5]; dry-cleaned one time): −1.92% | softness ([5]; dry-cleaned one time): 2.6 cm | softness percentage of variation ([5]; dry-cleaned one time): −1.14% | bursting strength ([5]; dry-cleaned two times): 27.25 kg · f/cm^2 | bursting strength percentage of variation ([5]; dry-cleaned two times): 14.81% | softness ([5]; dry-cleaned two times): 2.5 cm | softness percentage of variation ([5]; dry-cleaned two times): −4.94% | L ([6]; dry-cleaned five times): 78.04 | a ([6]; dry-cleaned five times): 0.25 | b ([6]; dry-cleaned five times): −7.41 | c ([6]; dry-cleaned five times): 7.42 | h ([6]; dry-cleaned five times): 271.9 | ΔE ([6]; dry-cleaned five times): 8.49 | ΔL ([6]; dry-cleaned five times): −8.47 | Δa ([6]; dry-cleaned five times): 0.26 | Δb ([6]; dry-cleaned five times): −0.43 | Δc ([6]; dry-cleaned five times): 0.43 | Δh ([6]; dry-cleaned five times): 0.25 | L ([6]; dry-cleaned one time): 77.88 | a ([6]; dry-cleaned one time): 0.21 | b ([6]; dry-cleaned one time): −7.42 | c ([6]; dry-cleaned one time): 7.43 | h ([6]; dry-cleaned one time): 271.61 | ΔE ([6]; dry-cleaned one time): 8.65 | ΔL ([6]; dry-cleaned one time): −8.64 | Δa ([6]; dry-cleaned one time): 0.22 | Δb ([6]; dry-cleaned one time): −0.44 | Δc ([6]; dry-cleaned one time): 0.44 | Δh ([6]; dry-cleaned one time): 0.22 | L ([6]; dry-cleaned two times): 78.9 | a ([6]; dry-cleaned two times): 0.15 | b ([6]; dry-cleaned two times): −7.2 | c ([6]; dry-cleaned two times): 7.21 | h ([6]; dry-cleaned two times): 271.19 | ΔE ([6]; dry-cleaned two times): 7.62 | ΔL ([6]; dry-cleaned two times): −7.62 | Δa ([6]; dry-cleaned two times): 0.16 | Δb ([6]; dry-cleaned two times): −0.22 | Δc ([6]; dry-cleaned two times): 0.22 | Δh ([6]; dry-cleaned two times): 0.16 | the degree of shrinkage, warp sense ([7]; dry-cleaned five times): 0% | the degree of shrinkage, weft sense ([7]; dry-cleaned five times): 0% | the degree of shrinkage, warp sense ([7]; dry-cleaned one time): 1% | the degree of shrinkage, weft sense ([7]; dry-cleaned one time): 0% | the degree of shrinkage, warp sense ([7]; dry-cleaned two times): 1% | the degree of shrinkage, weft sense ([7]; dry-cleaned two times): 0% | displacement ([8]; dry-cleaned five times): 58.47 mm | load weight ([8]; dry-cleaned five times): 33.15 kg | specific stress ([8]; dry-cleaned five times): 33.15 kg/L | strain ([8]; dry-cleaned five times): 38.98% | stress ([8]; dry-cleaned five times): 4.72 kg/mm^2 | displacement ([8]; dry-cleaned one time): 54.12 mm | load weight ([8]; dry-cleaned one time): 29.36 kg | specific stress ([8]; dry-cleaned one time): 29.36 kg/L | strain ([8]; dry-cleaned one time): 36.08% | stress ([8]; dry-cleaned one time): 4.18 kg/mm^2 | displacement ([8]; dry-cleaned two times): 52.12 mm | load weight ([8]; dry-cleaned two times): 31.84 kg | specific stress ([8]; dry-cleaned two times): 31.84 kg/L | strain ([8]; dry-cleaned two times): 34.74% | stress ([8]; dry-cleaned two times): 4.53 kg/mm^2 | bursting strength ([9]; dry-cleaned five times): 11.5 kg · f/cm^2 | bursting strength percentage of variation ([9]; dry-cleaned five times): −14.81% | softness ([9]; dry-cleaned five times): 4.1 cm | softness percentage of variation ([9]; dry-cleaned five times): −24.07% | bursting strength ([9]; dry-cleaned one time): 12.75 kg · f/cm^2 | bursting strength percentage of variation ([9]; dry-cleaned one time): −5.56% | softness ([9]; dry-cleaned one time): 6.3 cm | softness percentage of variation ([9]; dry-cleaned one time): 16.67% | bursting strength ([9]; dry-cleaned two times): 12.75 kg · f/cm^2 | bursting strength percentage of variation ([9]; dry-cleaned two times): −5.56% | softness ([9]; dry-cleaned two times): 5.1 cm | softness percentage of variation ([9]; dry-cleaned two times): −5.56% | bursting strength ([10]; dry-cleaned five times): 11.5 kg · f/cm^2 | bursting strength percentage of variation ([10]; dry-cleaned five times): −14.57% | softness ([10]; dry-cleaned five times): 2.9 cm | softness percentage of variation ([10]; dry-cleaned five times): 0.35% | bursting strength ([10]; dry-cleaned one time): 12.25 kg · f/cm^2 | bursting strength percentage of variation ([10]; dry-cleaned one time): 4.97% | softness ([10]; dry-cleaned one time): 3.4 cm | softness percentage of variation ([10]; dry-cleaned one time): 58.14% | bursting strength ([10]; dry-cleaned two times): 12 kg · f/cm^2 | bursting strength percentage of variation ([10]; dry-cleaned two times): 2.83% | softness ([10]; dry-cleaned two times): 3 cm | softness percentage of variation ([10]; dry-cleaned two times): 39.53% | bursting strength ([11]; dry-cleaned five times): 9.25 kg · f/cm^2 | softness ([11]; dry-cleaned five times): 2 cm | bursting strength percentage of variation ([11]; dry-cleaned five times): −2.63% | softness percentage of variation ([11]; dry-cleaned five times): −38.46% | bursting strength ([11]; dry-cleaned one time): 9.25 kg · f/cm^2 | softness ([11]; dry-cleaned one time): 2.5 cm | bursting strength percentage of variation ([11]; dry-cleaned one time): −2.63% | softness percentage of variation ([11]; dry-cleaned one time): −23.08% | bursting strength ([11]; dry-cleaned two times): 9 kg · f/cm^2 | softness ([11]; dry-cleaned two times): 2.2 cm | bursting strength percentage of variation ([11]; dry-cleaned two times): −5.26% | softness percentage of variation ([11]; dry-cleaned two times): −32.3%
